Results deposited as PubChem BioAssay AID1259279 (Sanger Institute, 2017).
Shown is a random part of 794 reagents. In the full data, 11 (1.4%) were called active. 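Calls reflect knock-down alone in the vehicle arm, not drug synergy.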 No viability above 1 is reported: the scale is capped. The record does not give: the amount of reagent, the time to read-out.

Aim: 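Find kinases whose loss works with colorectal cancer drugs to kill cells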 (primary screen)
System: LS180 human colorectal cancer cells
Reagent: siRNA pool against human genes
Conditions: anchor drug BYL719 at 1 µM, cetuximab at 5 µg/ml or trametinib at 10 nM, or DMSO vehicle only
Read-out: 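Viability as a fraction of non-targeting control and as a replicate-averaged robust z-score, with separate synergy scores for BYL719, cetuximab and trametinib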
Reading the numbers: viability z-score, no drug: higher = more viable cells after knock-down; viability, no drug: higher = more viable cells; synergy score with BYL719 and synergy score with cetuximab and synergy score with trametinib: higher = stronger synthetic lethal synergy with drug
Call rule: 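Essential (active) calls need a no-drug viability z-score lower than -3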
Meaning of the calls: active = essential (knock-down alone cuts viability); inactive = no change without drug

no.	target gene	viability z-score, no drug	viability, no drug (fraction)	synergy score with BYL719	synergy score with cetuximab	synergy score with trametinib	outcome
1	PRKD3 (protein kinase D3)	-1.53	0.74	-0.00505	-0.11	-0.00297	inactive
2	AK1 (adenylate kinase 1)	0.433	0.953	0.0605	-0.0692	0.0422	inactive
3	NR2F2 (nuclear receptor subfamily 2 group F member 2)	-0.918	0.806	0.0022	-0.0686	0.0519	inactive
4	GRK2 (G protein-coupled receptor kinase 2)	0.298	0.939	0.195	0.0259	0.139	inactive
5	PRKACG (protein kinase cAMP-activated catalytic subunit gamma)	0.86	1	0.0126	-0.0224	0.0939	inactive
6	TGFBR1 (transforming growth factor beta receptor 1)	0.86	1	-0.056	-0.154	0.00673	inactive
7	MAPK13 (mitogen-activated protein kinase 13)	0.802	0.994	-0.038	-0.171	-0.0197	inactive
8	EPHA1 (EPH receptor A1)	0.174	0.925	-0.029	-0.109	0.0437	inactive
9	PRAG1 (PEAK1 related, kinase-activating pseudokinase 1)	-1.98	0.69	0.00864	0.095	-0.0559	inactive
10	PRKAG3 (protein kinase AMP-activated non-catalytic subunit gamma 3)	-2.8	0.601	-0.0641	-0.0776	-0.137	inactive
11	PIK3R5 (phosphoinositide-3-kinase regulatory subunit 5)	-0.177	0.887	-0.00361	-0.147	0.161	inactive
12	HUS1 (HUS1 checkpoint clamp component)	0.711	0.984	-0.105	-0.0774	0.0797	inactive
13	TTBK1 (tau tubulin kinase 1)	-0.781	0.821	-0.128	-0.315	0.0169	inactive
14	PIK3CD	0.86	1	-0.121	-0.166	-0.0334	inactive

Continued, starting with the last 3 of the part before.
no.	target gene	viability z-score, no drug	viability, no drug (fraction)	synergy score with BYL719	synergy score with cetuximab	synergy score with trametinib	outcome
12	HUS1 (HUS1 checkpoint clamp component)	0.711	0.984	-0.105	-0.0774	0.0797	inactive
13	TTBK1 (tau tubulin kinase 1)	-0.781	0.821	-0.128	-0.315	0.0169	inactive
14	PIK3CD	0.86	1	-0.121	-0.166	-0.0334	inactive
15	MET (MET proto-oncogene, receptor tyrosine kinase)	0.86	1	-0.113	-0.131	-0.151	inactive
16	PFKP (phosphofructokinase, platelet)	-1.37	0.757	-0.137	-0.175	-0.0843	inactive
17	SMG1	-1.09	0.787	-0.074	-0.101	-0.0387	inactive
18	MAPK10 (mitogen-activated protein kinase 10)	0.86	1	-0.0379	-0.0527	-0.0488	inactive
19	GNE	0.86	1	-0.0742	-0.0209	0.0462	inactive
20	SOX9 (SRY-box transcription factor 9)	0.83	0.997	-0.0172	0.0407	0.066	inactive
21	MAP3K14 (mitogen-activated protein kinase kinase kinase 14)	-1.13	0.783	0.0547	-0.0269	-0.13	inactive
22	ATR (ATR checkpoint kinase)	-0.451	0.857	-0.0997	-0.119	-0.0738	inactive
23	RAF1 (Raf-1 proto-oncogene, serine/threonine kinase)	0.86	1	0.0169	0.0781	0.166	inactive
24	NEK9 (NIMA related kinase 9)	-0.366	0.866	-0.168	-0.2	-0.0147	inactive
25	BRD4 (bromodomain containing 4)	0.693	0.982	-0.041	0.0308	0.0494	inactive
26	PCK1 (phosphoenolpyruvate carboxykinase 1)	-1.32	0.762	0.0339	0.0499	-0.00208	inactive
27	MLKL (mixed lineage kinase domain like pseudokinase)	-0.679	0.832	-0.191	-0.116	-0.125	inactive
28	MAP3K1 (mitogen-activated protein kinase kinase kinase 1)	0.86	1	0.0207	-0.012	0.05	inactive
29	CPNE3 (copine 3)	0.86	1	-0.078	-0.166	0.0911	inactive
30	CDK13 (cyclin dependent kinase 13)	0.86	1	-0.0553	-0.166	-0.134	inactive
31	PPP2R1A (protein phosphatase 2 scaffold subunit Aalpha)	0.86	1	-0.153	-0.166	-0.126	inactive
32	BMPR1A (bone morphogenetic protein receptor type 1A)	-0.64	0.836	-0.115	-0.145	0.0105	inactive
33	CDK1 (cyclin dependent kinase 1)	0.515	0.962	-0.0907	-0.188	-0.0905	inactive
34	BTK (Bruton tyrosine kinase)	0.86	1	0.0709	0.0393	0.193	inactive
